Results from US20240409663A1 (CONCEPT TO MEDICINE BIOTECH, published 2024).
Results are given in words; binding and its absence hold for the method and conditions named. Some binding calls cover weakened binding; strength is not graded here.

Protein sequences, listed by entry. Tags and fused reporters are not part of them. Lines headed by an entry give the natural chain unless they say otherwise; changes in a name come on top. Residues count along the entry.
UniProt P51654, residues 25-559: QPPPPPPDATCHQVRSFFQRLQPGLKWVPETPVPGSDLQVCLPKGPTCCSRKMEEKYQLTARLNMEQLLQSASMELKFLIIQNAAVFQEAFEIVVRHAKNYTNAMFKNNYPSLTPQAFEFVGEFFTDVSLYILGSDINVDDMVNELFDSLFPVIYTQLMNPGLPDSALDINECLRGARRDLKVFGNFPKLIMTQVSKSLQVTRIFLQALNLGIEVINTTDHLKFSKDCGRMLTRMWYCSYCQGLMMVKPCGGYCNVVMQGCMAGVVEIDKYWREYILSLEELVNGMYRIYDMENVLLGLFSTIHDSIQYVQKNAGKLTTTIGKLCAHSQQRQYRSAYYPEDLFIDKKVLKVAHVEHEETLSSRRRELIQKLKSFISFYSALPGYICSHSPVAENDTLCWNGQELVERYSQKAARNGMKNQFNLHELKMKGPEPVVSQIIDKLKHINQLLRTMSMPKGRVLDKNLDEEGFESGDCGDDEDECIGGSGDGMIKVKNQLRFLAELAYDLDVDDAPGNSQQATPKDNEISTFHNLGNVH
UniProt Q8CFZ4: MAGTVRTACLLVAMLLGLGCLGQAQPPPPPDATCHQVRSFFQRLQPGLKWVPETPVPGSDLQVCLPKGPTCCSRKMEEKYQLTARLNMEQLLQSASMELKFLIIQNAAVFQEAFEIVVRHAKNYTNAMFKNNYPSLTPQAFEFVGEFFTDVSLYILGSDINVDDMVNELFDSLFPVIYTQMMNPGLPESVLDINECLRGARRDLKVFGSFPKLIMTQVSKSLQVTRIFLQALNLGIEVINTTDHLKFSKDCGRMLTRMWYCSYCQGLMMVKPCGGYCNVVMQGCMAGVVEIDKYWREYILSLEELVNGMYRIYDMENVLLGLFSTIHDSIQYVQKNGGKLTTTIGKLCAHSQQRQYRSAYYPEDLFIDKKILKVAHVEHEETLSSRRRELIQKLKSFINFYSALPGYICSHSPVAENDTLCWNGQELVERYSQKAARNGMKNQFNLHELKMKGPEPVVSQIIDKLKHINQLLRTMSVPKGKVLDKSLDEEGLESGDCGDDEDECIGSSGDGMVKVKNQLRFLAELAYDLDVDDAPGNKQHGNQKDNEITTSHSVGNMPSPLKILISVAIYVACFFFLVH

Columns and labels:
[1] = biological target: T1, human GPC3 protein (ELISA coat) (human, UniProt P51654 25-559, limits assumed); experiment: ELISA, coated GPC3
T1 construct: protein coated on plates in the cross species ELISA

[2] = biological target: T2, mouse GPC3 protein (mouse, UniProt Q8CFZ4 25-558, limits assumed); experiment: ELISA, coated GPC3
T2 construct: protein coated on plates in the cross species ELISA

[3] = biological target: T1, human GPC3 protein (ELISA coat); experiment: ELISA (legend of FIG. 3)
[4] = biological target: T2, mouse GPC3 protein; experiment: ELISA (legend of FIG. 3)

Measured: binding

B1: 52H5D3B8 chimeric mAb (antibody, V domains shown)
VH: QVQLQQSGAELVRPGASVKLSCKALGYTFTDYEMHWVKQTPVHGLEWIGAIHPGSGGTAYNQKFKGKATLTADKFSSTGYMELSSLTSEDSAVYYCTRFYSYAYWGQGTLVTVSA
VL: DVVMTQTPLSLPVSLGDQASISCRSSQSLVHSNGNTYLQWYLQKPGQSPKLLIYKVSNRFSGVPDRFSGSGSGTDFILKISRVEAEDLGVYFCSQSIHVPYTFGGGTKLEIK
notes: also called 52H5D3B8-VH+VL; chimeric 52H5D3B8 mAb
binds: [1] | [2] | [3] | [4]
